The supplement of paper PMC4604168 (melanoma cell lines)
Some of the results follow. Single values are uncertain, as repeats are few or missing.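 Cells were imaged in 1,536-well plates, and nuclei stained with an antibody against cleaved PARP were counted against all DNA-stained nuclei to give the apoptosis fraction. Screening doses were chosen to leave most cells alive, and resting and induced cleaved-PARP levels differ strongly between cell lines.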

Legend:
Test in all cases: cleaved PARP positive nuclei fraction relative to DMSO control; melanoma cells; higher = more apoptosis
Conditions in all cases: library dose: low library concentration; 72 h
MZ2-MEL = tested on: MZ2-MEL
MeWo = tested on: MeWo
RPMI7951 = tested on: RPMI7951
RVH-421 = tested on: RVH-421
SkMel28 = tested on: SkMel28
SkMel2 = tested on: SkMel2
SkMel30 = tested on: SkMel30
SkMel5 = tested on: SkMel5
UACC257 = tested on: UACC257
UACC62 = tested on: UACC62

Compound | cleaved PARP positive nuclei fraction (MZ2-MEL) [%] | cleaved PARP positive nuclei fraction (MeWo) [%] | cleaved PARP positive nuclei fraction (RPMI7951) [%] | cleaved PARP positive nuclei fraction (RVH-421) [%] | cleaved PARP positive nuclei fraction (SkMel28) [%] | cleaved PARP positive nuclei fraction (SkMel2) [%] | cleaved PARP positive nuclei fraction (SkMel30) [%] | cleaved PARP positive nuclei fraction (SkMel5) [%] | cleaved PARP positive nuclei fraction (UACC257) [%] | cleaved PARP positive nuclei fraction (UACC62) [%]
CCN(CC)CCNC(=O)c1c(C)[nH]c(/C=C2\C(=O)Nc3ccc(F)cc32)c1C [sunitinib] + OCCn1cc(-c2cnc3nnn(Cc4ccc5ncccc5c4)c3n2)cn1 [PF04217903] (first compound 0.4 µM, partner dose 1 µM) | 103 | 115 | 90.7 | 97.9 | 40.3 | 54.5 | 43.1 | 78.2 | 155 | 146
CC(=O)O[C@@]12CO[C@@H]1C[C@H](O)[C@@]1(C)C(=O)[C@H](O)C3=C(C)[C@@H](OC(=O)[C@H](O)[C@@H](NC(=O)OC(C)(C)C)c4ccccc4)C[C@@](O)([C@@H](OC(=O)c4ccccc4)[C@H]21)C3(C)C [Docetaxel] + O=C(O)C(=O)Nc1sc2c(c1C(=O)O)CCNC2 [TCS401] (first compound 0.0001 µM, partner dose 1.66667 µM) | 434 | 556 | 185 | 121 | 598 | 629 | 232 | 169 | 348 | 640
C[C@@H](N)c1ccc(C(=O)Nc2ccnc3[nH]ccc23)cc1 + COc1cc2ncnc(Nc3ccc(Oc4ccccc4)cc3)c2cc1OC [SrcI1] (first compound 0.4 µM, partner dose 2 µM) | 201 | 249 | 127 | 142 | 305 | 71.8 | 74.6 | 167 | 38.1 | 322
NC1(c2ccc(-c3nc4ccn5c(=O)[nH]nc5c4cc3-c3ccccc3)cc2)CCC1 + O=c1cc(-c2cccc3c2Sc2ccccc2S3)oc(N2CCOCC2)c1 [KU55933] (first compound 0.4 µM, partner dose 1 µM) | 28.1 | 64.1 | 67 | 287 | 347 | 161 | 46.4 | 309 | 118 | 262
Cn1sc(=O)n(Cc2ccccc2)c1=O + COc1cc2ncnc(Nc3ccc(Oc4ccccc4)cc3)c2cc1OC [SrcI1] (first compound 0.4 µM, partner dose 2 µM) | 91.3 | 122 | 107 | 32.3 | 106 | 99.5 | 76.1 | 145 | 51.4 | 377
CCN(CC)CCNC(=O)c1c(C)[nH]c(/C=C2\C(=O)Nc3ccc(F)cc32)c1C [sunitinib] + CN(NC(=O)CC(=O)NN(C)C(=S)c1ccccc1)C(=S)c1ccccc1 [STA4783] (first compound 0.4 µM, partner dose 0.006 µM) | 150 | 56.6 | 46.2 | 1010 | 660 | 52.2 | 75.1 | 272 | 189 | 211
Cn1cnc2c(F)c(Nc3ccc(Br)cc3Cl)c(C(=O)NOCCO)cc21 [selumetinib] + O=C(Nc1cccc(Cl)c1)Nc1ncc(CCNc2ncnc3ccsc23)s1 [SNS314] (first compound 0.015 µM, partner dose 0.0008 µM) | 196 | 302 | 336 | 160 | 15.8 | 129 | 101 | 61.2 | 96.5 | 112
C[C@@H](N)c1ccc(C(=O)Nc2ccnc3[nH]ccc23)cc1 + CC1(C)NC(=O)N(c2ccc([N+](=O)[O-])c(C(F)(F)F)c2)C1=O [nilutamide] (first compound 0.4 µM, partner dose 1 µM) | 144 | 217 | 233 | 56.7 | 244 | 46.4 | 54.9 | 165 | 97.8 | 76.9
CC(=O)O[C@@]12CO[C@@H]1C[C@H](O)[C@@]1(C)C(=O)[C@H](O)C3=C(C)[C@@H](OC(=O)[C@H](O)[C@@H](NC(=O)OC(C)(C)C)c4ccccc4)C[C@@](O)([C@@H](OC(=O)c4ccccc4)[C@H]21)C3(C)C [Docetaxel] + NC(=O)Nc1cc(-c2cccc(F)c2)sc1C(=O)N[C@H]1CCCNC1 [AZD7762] (first compound 0.0001 µM, partner dose 0.02 µM) | 1240 | 1130 | 182 | 71.4 | 146 | 906 | 233 | 79.3 | 211 | 507
CC1(C)CCC(c2ccc(Cl)cc2)=C(CN2CCN(c3ccc(C(=O)NS(=O)(=O)c4ccc(N[C@H](CCN5CCOCC5)CSc5ccccc5)c(S(=O)(=O)C(F)(F)F)c4)cc3)CC2)C1 + CCN(CC)CCCCNc1ncc2cc(-c3cc(OC)cc(OC)c3)c(NC(=O)NC(C)(C)C)nc2n1 [PD173074] (first compound 0.4 µM, partner dose 0.1 µM) | 40.5 | 596 | 299 | 259 | 70.8 | 140 | 22.9 | 103 | 162 | 117
NC1(c2ccc(-c3nc4ccn5c(=O)[nH]nc5c4cc3-c3ccccc3)cc2)CCC1 + COc1cc(Nc2ncc(F)c(Nc3ccc4c(n3)NC(=O)C(C)(C)O4)n2)cc(OC)c1OC [Tamatinib] (first compound 0.4 µM, partner dose 0.4 µM) | 136 | 56.5 | 200 | 220 | 265 | 94.3 | 83.2 | 78.7 | 436 | 325
NC1(c2ccc(-c3nc4ccn5c(=O)[nH]nc5c4cc3-c3ccccc3)cc2)CCC1 + COc1ccc(-c2ccc3c(N4CCOCC4)nc(N4C[C@@H](C)O[C@@H](C)C4)nc3n2)cc1CO [KU0063794] (first compound 0.4 µM, partner dose 0.02 µM) | 95.5 | 62.7 | 80.9 | 204 | 177 | 94.5 | 32.5 | 72.1 | 321 | 191
CCCCCCCCc1ccc(CCC(N)(CO)CO)cc1 [fingolimod] + CCCCCCCCCCCC1=C(O)C(=O)C=C(O)C1=O [Embelin] (first compound 2 µM, partner dose 1.2 µM) | 75.8 | 28.3 | 40.1 | 150 | 138 | 34 | 18.3 | 82 | 72.7 | 95.7
CCCCCCCCc1ccc(CCC(N)(CO)CO)cc1 [fingolimod] + Oc1nc(-c2ccc(C(F)(F)F)cc2)nc2c1CSCC2 [XAV939] (first compound 2 µM, partner dose 2 µM) | 92.3 | 77.4 | 55.8 | 437 | 150 | 132 | 255 | 86.2 | 151 | 137
CS(=O)(=O)c1ccc(C(=O)Nc2ccc(Cl)c(-c3ccccn3)c2)c(Cl)c1 [vismodegib] + CC(C)(C)c1cnc(CSc2cnc(NC(=O)C3CCNCC3)s2)o1 [SNS-032] (first compound 1 µM, partner dose 0.01 µM) | 56.2 | 135 | 42.3 | 57.8 | 85.7 | 95.4 | 67.3 | 109 | 325 | 173
C[C@@H](N)c1ccc(C(=O)Nc2ccnc3[nH]ccc23)cc1 + CC(C)CCN1c2nc(Nc3cc(F)c(O)c(F)c3)ncc2N(C)C(=O)C1C [BID1870] (first compound 0.4 µM, partner dose 0.2 µM) | 159 | 122 | 42.1 | 110 | 426 | 71.8 | 72.6 | 66.3 | 660 | 133
COc1ccc(C2=N[C@@H](c3ccc(Cl)cc3)[C@@H](c3ccc(Cl)cc3)N2C(=O)N2CCNC(=O)C2)c(OC(C)C)c1 [Nutlin-3] + NC(=O)Nc1cc(-c2cccc(F)c2)sc1C(=O)N[C@H]1CCCNC1 [AZD7762] (first compound 0.1 µM, partner dose 0.02 µM) | 117 | 74.3 | 99.4 | 109 | 59.9 | 111 | 77.5 | 150 | 97.9 | 93.7
CCN(CC)CCNC(=O)c1c(C)[nH]c(/C=C2\C(=O)Nc3ccc(F)cc32)c1C [sunitinib] + Cn1cncc1[C@@](N)(c1ccc(Cl)cc1)c1ccc2c(c1)c(-c1cccc(Cl)c1)cc(=O)n2C [tipifarnib] (first compound 0.4 µM, partner dose 0.01 µM) | 50.8 | 105 | 102 | 105 | 65.5 | 145 | 70.6 | 31.2 | 124 | 158
C[C@@H](N)c1ccc(C(=O)Nc2ccnc3[nH]ccc23)cc1 + COc1ccc(COc2ccc(Cc3cnc(N)nc3N)cc2OC)cc1 [GW2580] (first compound 0.4 µM, partner dose 1 µM) | 192 | 232 | 169 | 157 | 119 | 95.8 | 42.1 | 185 | 205 | 135
CCCCCCCCc1ccc(CCC(N)(CO)CO)cc1 [fingolimod] + CN(C)S(=O)(=O)c1ccc2c(c1)/C(=C/c1cc3c([nH]1)CCCC3)C(=O)N2 [SU6656] (first compound 2 µM, partner dose 0.4 µM) | 39.2 | 193 | 238 | 102 | 128 | 46.7 | 65.2 | 68.5 | 41.1 | 125

Record cards, from the list above. Order of values: cleaved PARP positive nuclei fraction (MZ2-MEL) [%]	cleaved PARP positive nuclei fraction (MeWo) [%]	cleaved PARP positive nuclei fraction (RPMI7951) [%]	cleaved PARP positive nuclei fraction (RVH-421) [%]	cleaved PARP positive nuclei fraction (SkMel28) [%]	cleaved PARP positive nuclei fraction (SkMel2) [%]	cleaved PARP positive nuclei fraction (SkMel30) [%]	cleaved PARP positive nuclei fraction (SkMel5) [%]	cleaved PARP positive nuclei fraction (UACC257) [%]	cleaved PARP positive nuclei fraction (UACC62) [%]
CC(=O)O[C@@]12CO[C@@H]1C[C@H](O)[C@@]1(C)C(=O)[C@H](O)C3=C(C)[C@@H](OC(=O)[C@H](O)[C@@H](NC(=O)OC(C)(C)C)c4ccccc4)C[C@@](O)([C@@H](OC(=O)c4ccccc4)[C@H]21)C3(C)C [Docetaxel] + NC(=O)Nc1cc(-c2cccc(F)c2)sc1C(=O)N[C@H]1CCCNC1 [AZD7762] (first compound 0.0001 µM, partner dose 0.02 µM) as listed: 1240	1130	182	71.4	146	906	233	79.3	211	507
CS(=O)(=O)c1ccc(C(=O)Nc2ccc(Cl)c(-c3ccccn3)c2)c(Cl)c1 [vismodegib] + CC(C)(C)c1cnc(CSc2cnc(NC(=O)C3CCNCC3)s2)o1 [SNS-032] (first compound 1 µM, partner dose 0.01 µM) as listed: 56.2	135	42.3	57.8	85.7	95.4	67.3	109	325	173
